Source: US7259177B2, “Cycloalkylmethoxy-substituted acetic acid derivatives, processes for their preparation and their use as pharmaceuticals” (Sanofi-Aventis Deutschland GmbH, priority 2003, dated 2007)
Some entries share one result that the patent states for a list of compounds.

Biological target: T1, human PPARα (Homo sapiens, UniProt Q07869)
T1 construct: amino acids S167-Y468; expressed in transfected cells; host or cells: HEK (human embryo kidney) cells, stably transfected with pcDNA3 carrying the fusion construct
T1 sequence (Q07869 167-468): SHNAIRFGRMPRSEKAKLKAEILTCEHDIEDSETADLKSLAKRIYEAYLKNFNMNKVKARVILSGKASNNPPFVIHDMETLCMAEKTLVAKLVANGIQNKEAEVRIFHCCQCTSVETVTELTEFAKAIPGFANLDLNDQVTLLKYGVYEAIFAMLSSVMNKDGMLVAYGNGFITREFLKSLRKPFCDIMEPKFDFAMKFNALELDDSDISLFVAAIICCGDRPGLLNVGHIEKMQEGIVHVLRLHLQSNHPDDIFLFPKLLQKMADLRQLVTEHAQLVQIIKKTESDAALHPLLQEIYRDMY
Assay: Cellular PPARalpha assay (stably transfected HEK PPARalpha reporter cell line, luciferase)
Assay type: cell-based
Conditions: read-out: PPARalpha EC50 values; range over the examples; each bound printed with its own unit (nm, μM)
Description: (A) Determination of EC50 Values of PPAR Agonists in the Cellular PPARalpha Assay
The potency of substances that bind to human PPARα and activate in an agonistic manner is analyzed using a stably transfected HEK cell line (HEK=human embryo kidney) which is referred to here as PPARalpha reporter cell line. It contains two genetic elements, a luciferase reporter element (pΔM-GAL4-Luc-Zeo) and a PPARalpha fusion protein (GR-GAL4-humanPPARα-LBD) that mediates expression of the luciferase reporter element depending on a PPARalpha ligand. The stably and constitutively expressed fusion protein GR-GAL4-humanPPARalpha-LBD binds in the cell nucleus of the PPARalpha reporter cell line via the GAL4 protein portion to the GAL4 DNA binding motifs 5′-upstream of the luciferase reporter element which is integrated in the genome of the cell line. There is only little expression of the luciferase reporter gene without addition of a PPARalpha ligand if fatty acid-depleted fetal calf serum (cs-FCS) is used in the assay. PPARα ligands bind and activate the PPARα fusion protein and thereby bring about expression of the luciferase reporter gene. The luciferase which is formed can be detected by means of chemiluminescence via an appropriate substrate.
The PPARalpha reporter cell line was prepared in 2 stages. […]
The activity of PPARalpha agonists is determined in a 3-day assay described below: […]

For `COc1ccc(OC(=O)N(CCC2CCCC(OCc3nc(-c4cccc(C)c4)oc3C)C2)[C@H](C(=O)O)C(C)C)cc1` (mixture of isomers) [Example 79, (S)-2-((4-Methoxyphenoxycarbonyl)-{2-[cis-3-(5-methyl-2-m-tolyloxazol-4-ylmethoxy)cyclohexyl]ethyl}amino)-3-methylbutyric Acid], the EC50 was at least 0.07 nM.
